This is one part of the list.
Compound: COc1ccc(Cn2ccc3ccc(C(=O)NO)cc32)cc1
Test: dose-dependent thermal stabilisation call (2D-TPP, DLPTP, 10% FDR) (binary (1 = stabilised)); higher = stabilised by the compound
Settings: system: HL-60 intact cells; concentration range 0.04-10 µM

Chains of the proteins cited; added tags and fusions are not shown. Lines headed by an entry give the natural chain unless they say otherwise; changes in a name come on top.
UniProt Q9NQG6: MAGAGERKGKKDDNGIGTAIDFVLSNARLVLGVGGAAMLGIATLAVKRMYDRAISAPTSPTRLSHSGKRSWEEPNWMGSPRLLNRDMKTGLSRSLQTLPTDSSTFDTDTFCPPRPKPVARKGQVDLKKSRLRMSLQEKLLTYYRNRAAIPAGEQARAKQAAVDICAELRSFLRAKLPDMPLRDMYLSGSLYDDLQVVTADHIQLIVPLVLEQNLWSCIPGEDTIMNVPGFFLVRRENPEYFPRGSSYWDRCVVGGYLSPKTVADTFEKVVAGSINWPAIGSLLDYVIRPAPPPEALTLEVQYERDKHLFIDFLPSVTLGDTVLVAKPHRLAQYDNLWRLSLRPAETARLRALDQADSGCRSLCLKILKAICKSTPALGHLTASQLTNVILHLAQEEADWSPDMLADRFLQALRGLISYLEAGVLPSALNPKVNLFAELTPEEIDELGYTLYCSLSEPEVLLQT
UniProt O95210: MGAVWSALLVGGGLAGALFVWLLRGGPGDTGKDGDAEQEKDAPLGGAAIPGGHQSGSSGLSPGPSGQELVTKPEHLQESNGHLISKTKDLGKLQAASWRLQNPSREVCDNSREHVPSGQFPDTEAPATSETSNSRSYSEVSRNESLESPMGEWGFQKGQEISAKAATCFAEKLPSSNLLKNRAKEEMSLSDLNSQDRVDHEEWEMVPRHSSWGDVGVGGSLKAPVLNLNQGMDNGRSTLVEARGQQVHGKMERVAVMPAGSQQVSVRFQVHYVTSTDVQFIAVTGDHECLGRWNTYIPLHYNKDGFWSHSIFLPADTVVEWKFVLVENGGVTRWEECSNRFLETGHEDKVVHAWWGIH
UniProt P56962: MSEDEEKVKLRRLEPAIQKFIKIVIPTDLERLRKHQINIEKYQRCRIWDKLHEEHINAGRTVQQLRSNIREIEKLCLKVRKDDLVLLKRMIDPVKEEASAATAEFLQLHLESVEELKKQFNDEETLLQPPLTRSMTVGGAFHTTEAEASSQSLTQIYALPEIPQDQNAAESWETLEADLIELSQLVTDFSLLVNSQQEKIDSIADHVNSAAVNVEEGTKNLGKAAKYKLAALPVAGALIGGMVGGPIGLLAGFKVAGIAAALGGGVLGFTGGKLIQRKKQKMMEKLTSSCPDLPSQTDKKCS
UniProt P16949: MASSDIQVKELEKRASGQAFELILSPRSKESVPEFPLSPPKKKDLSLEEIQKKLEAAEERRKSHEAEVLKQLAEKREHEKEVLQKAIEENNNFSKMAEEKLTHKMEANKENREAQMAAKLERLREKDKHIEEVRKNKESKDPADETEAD
UniProt Q96GM5, whole entry: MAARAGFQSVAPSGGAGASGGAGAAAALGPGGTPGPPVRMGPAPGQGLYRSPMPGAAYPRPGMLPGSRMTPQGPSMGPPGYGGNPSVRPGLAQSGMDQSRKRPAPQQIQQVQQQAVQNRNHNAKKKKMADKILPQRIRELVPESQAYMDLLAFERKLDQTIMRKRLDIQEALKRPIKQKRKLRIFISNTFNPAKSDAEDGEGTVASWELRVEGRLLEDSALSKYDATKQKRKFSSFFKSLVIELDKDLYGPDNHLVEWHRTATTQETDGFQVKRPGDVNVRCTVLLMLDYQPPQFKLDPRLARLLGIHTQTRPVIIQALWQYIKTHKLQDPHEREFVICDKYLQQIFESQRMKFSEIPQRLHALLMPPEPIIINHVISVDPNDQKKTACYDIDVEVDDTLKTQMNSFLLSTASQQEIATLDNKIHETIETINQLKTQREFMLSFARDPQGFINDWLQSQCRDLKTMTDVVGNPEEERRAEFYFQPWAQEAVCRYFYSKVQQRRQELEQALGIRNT
UniProt P53814: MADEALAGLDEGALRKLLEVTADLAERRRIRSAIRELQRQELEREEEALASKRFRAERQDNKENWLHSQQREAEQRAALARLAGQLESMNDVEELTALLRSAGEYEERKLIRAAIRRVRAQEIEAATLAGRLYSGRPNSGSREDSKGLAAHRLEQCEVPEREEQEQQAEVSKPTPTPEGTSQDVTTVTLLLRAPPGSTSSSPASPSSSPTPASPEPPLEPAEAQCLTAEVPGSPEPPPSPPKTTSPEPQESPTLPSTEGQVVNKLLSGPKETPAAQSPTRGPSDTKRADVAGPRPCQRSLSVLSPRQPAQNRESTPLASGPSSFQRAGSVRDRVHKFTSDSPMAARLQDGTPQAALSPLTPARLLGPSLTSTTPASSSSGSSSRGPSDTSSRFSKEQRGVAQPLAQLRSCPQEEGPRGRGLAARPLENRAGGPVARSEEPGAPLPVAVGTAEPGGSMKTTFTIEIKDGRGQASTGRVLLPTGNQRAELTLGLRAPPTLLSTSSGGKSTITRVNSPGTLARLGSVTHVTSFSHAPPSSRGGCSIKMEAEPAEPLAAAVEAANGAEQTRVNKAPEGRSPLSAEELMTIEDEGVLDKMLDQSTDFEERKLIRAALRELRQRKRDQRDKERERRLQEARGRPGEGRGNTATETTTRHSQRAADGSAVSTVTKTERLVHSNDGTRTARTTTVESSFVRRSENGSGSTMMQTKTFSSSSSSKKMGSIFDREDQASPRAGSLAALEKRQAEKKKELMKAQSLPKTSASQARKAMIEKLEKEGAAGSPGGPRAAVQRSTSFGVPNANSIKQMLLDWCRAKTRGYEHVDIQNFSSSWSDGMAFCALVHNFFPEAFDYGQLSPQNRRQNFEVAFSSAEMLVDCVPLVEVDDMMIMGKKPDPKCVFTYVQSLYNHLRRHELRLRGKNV
UniProt O94804: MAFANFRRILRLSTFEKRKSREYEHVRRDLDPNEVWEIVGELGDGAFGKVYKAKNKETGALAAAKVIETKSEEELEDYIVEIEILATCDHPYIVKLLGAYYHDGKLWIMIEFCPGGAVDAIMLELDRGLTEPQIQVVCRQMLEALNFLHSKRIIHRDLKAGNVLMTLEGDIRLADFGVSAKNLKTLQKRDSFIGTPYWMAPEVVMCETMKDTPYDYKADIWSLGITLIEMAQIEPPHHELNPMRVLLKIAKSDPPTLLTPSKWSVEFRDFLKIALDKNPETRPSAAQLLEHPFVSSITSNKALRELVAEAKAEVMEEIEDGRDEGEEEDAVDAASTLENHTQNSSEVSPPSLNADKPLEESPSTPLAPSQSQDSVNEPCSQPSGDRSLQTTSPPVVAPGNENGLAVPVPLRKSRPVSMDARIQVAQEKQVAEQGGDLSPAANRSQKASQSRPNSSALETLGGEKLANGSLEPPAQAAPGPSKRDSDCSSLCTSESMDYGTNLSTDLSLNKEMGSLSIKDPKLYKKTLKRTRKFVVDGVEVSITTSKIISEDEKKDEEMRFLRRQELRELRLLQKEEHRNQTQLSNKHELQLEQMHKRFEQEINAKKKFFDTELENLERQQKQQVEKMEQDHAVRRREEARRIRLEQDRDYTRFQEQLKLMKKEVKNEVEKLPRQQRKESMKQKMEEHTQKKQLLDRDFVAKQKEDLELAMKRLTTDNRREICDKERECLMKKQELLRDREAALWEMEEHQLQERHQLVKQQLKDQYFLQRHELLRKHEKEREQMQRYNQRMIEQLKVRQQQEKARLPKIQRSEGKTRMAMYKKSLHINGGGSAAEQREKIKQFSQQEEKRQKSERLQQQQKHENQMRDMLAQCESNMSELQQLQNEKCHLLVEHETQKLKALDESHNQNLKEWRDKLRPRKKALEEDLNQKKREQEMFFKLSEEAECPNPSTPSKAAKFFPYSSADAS
UniProt Q16637, whole entry: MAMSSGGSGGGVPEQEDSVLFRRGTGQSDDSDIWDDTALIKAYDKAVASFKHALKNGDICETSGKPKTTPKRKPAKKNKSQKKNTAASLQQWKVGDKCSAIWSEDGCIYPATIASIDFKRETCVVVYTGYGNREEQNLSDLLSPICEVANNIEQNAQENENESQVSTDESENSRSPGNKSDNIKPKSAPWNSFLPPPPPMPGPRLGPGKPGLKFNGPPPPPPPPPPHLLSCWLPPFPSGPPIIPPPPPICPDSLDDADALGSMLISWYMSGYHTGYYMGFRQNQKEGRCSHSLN
UniProt O75529: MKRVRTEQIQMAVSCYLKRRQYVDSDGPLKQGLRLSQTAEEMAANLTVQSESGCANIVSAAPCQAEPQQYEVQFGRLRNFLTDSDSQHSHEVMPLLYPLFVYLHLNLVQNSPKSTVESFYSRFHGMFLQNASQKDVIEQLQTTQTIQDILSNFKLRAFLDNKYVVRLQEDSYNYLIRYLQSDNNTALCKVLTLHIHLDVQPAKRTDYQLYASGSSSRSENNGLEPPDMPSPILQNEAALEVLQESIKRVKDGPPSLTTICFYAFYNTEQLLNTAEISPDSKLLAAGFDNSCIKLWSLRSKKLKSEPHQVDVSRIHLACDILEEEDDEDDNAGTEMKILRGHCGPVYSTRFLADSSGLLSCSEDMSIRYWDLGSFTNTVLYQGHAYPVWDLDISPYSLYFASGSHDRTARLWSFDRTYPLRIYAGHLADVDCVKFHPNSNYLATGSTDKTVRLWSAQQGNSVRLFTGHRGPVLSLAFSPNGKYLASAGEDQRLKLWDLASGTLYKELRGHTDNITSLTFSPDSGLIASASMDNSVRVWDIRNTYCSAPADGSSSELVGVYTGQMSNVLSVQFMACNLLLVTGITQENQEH
UniProt O75486: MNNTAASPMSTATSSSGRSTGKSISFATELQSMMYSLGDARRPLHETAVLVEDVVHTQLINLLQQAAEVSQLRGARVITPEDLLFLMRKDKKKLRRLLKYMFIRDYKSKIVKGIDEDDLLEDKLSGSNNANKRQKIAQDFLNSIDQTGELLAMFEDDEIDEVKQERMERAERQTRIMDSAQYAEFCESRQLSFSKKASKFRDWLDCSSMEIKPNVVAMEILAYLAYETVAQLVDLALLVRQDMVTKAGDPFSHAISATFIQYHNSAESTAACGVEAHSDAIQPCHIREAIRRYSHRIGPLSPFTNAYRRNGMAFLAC
UniProt Q14534: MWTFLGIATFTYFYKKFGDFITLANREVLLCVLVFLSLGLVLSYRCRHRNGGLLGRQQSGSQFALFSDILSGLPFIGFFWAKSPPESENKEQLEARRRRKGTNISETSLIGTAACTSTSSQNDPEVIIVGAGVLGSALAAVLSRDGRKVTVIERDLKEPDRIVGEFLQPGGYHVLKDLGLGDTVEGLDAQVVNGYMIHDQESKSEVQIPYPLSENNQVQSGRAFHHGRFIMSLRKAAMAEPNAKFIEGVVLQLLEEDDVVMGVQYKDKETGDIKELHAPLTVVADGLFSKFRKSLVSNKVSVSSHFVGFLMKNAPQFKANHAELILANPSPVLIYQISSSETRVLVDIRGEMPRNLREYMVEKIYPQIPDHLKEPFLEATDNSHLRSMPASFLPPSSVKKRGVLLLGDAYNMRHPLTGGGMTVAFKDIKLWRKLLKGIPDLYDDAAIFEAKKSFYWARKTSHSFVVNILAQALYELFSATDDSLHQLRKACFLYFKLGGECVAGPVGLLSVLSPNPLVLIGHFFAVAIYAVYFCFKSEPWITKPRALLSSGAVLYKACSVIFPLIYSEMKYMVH
UniProt P27105: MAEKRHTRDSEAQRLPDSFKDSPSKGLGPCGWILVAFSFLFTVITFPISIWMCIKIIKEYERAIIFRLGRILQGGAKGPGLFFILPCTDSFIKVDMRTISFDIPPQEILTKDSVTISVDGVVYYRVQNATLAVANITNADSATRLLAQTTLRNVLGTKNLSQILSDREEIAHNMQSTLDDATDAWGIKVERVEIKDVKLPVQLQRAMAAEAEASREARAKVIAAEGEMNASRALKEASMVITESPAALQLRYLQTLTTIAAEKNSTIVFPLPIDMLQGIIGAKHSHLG
UniProt Q9NRG4: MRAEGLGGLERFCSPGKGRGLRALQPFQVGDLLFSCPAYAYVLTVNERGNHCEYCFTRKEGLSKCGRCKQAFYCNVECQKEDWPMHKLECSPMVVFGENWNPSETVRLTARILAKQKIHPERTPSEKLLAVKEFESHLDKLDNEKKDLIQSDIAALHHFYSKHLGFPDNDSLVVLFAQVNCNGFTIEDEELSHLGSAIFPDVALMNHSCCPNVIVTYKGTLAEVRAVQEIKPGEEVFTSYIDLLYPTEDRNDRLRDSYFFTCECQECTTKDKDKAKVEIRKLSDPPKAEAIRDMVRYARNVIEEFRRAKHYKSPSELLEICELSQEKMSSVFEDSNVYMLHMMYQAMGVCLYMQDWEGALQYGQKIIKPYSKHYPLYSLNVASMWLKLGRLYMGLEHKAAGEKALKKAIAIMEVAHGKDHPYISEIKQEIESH
UniProt Q12824, whole entry: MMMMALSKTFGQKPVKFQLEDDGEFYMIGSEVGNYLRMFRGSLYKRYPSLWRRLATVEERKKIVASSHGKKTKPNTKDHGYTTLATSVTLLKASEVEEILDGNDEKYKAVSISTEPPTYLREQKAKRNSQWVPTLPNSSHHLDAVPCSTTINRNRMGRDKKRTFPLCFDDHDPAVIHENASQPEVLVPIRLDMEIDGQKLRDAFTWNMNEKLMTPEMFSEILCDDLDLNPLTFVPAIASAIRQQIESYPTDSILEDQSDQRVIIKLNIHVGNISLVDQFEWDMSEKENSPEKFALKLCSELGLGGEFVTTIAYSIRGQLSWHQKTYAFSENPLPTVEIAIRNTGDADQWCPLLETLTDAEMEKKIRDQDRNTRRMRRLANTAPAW

Target | dose-dependent thermal stabilisation call
SMCR7L (UniProt Q9NQG6) | inactive: 0
STBD1 (UniProt O95210) | inactive: 0
STX17 (UniProt P56962) | inactive: 0
STMN1 (UniProt P16949) | inactive: 0
SMARCD1 (UniProt Q96GM5) | inactive: 0
SMTN (UniProt P53814) | inactive: 0
ST3GAL2 (UniProt Q16842) | inactive: 0
STK11IP (UniProt Q8N1F8) | inactive: 0
STK10 (UniProt O94804) | inactive: 0
SMCHD1 (UniProt A6NHR9) | inactive: 0
STK17B (UniProt O94768) | inactive: 0
SREBF2 (UniProt Q12772) | inactive: 0
SMC4 (UniProt Q9NTJ3) | inactive: 0
SPG11 (UniProt Q96JI7) | inactive: 0
SMN1 (UniProt Q16637) | inactive: 0
SUPT5H (UniProt O00267) | inactive: 0
TAF5L (UniProt O75529) | inactive: 0
SUPT3H (UniProt O75486) | inactive: 0
SQLE (UniProt Q14534) | inactive: 0

Target | dose-dependent thermal stabilisation call
STOM (UniProt P27105) | inactive: 0
STAT5A (UniProt P42229) | inactive: 0
SMARCA5 (UniProt O60264) | inactive: 0
SNAPIN (UniProt O95295) | inactive: 0
SNX8 (UniProt Q9Y5X2) | inactive: 0
TAF5 (UniProt Q15542) | inactive: 0
SNRNP70 (UniProt P08621) | inactive: 0
STARD7 (UniProt Q9NQZ5) | inactive: 0
SUMF1 (UniProt Q8NBK3) | inactive: 0
SRP14 (UniProt P37108) | inactive: 0
SMYD2 (UniProt Q9NRG4) | inactive: 0
ST13 (UniProt P50502) | inactive: 0
SPTY2D1 (UniProt Q68D10) | inactive: 0
SMARCB1 (UniProt Q12824) | inactive: 0
SMG5 (UniProt Q9UPR3) | inactive: 0
SLC9A7 (UniProt Q96T83) | inactive: 0
SNX6 (UniProt Q9UNH7) | inactive: 0
SRCAP (UniProt Q6ZRS2) | inactive: 0

Given as tab-separated lines: part of the list above.
Target	dose-dependent thermal stabilisation call
ST3GAL2 (UniProt Q16842)	inactive: 0
STK11IP (UniProt Q8N1F8)	inactive: 0

Source: the supplement of paper PMC7666118
